Assay results reported in PubChem BioAssay AID328 (DTP/NCI, 2004).
The list shows only some results of the screen, not a fair sample: it gathers tests that were run many times, whatever their T/C, doses with no T/C, and many T/C values between a quarter and a half above the control. Other doses and runs of a compound stand elsewhere. T/C: endpoint of the treated group in % of that of the vehicle group. Some doses have a count of surviving animals in place of a T/C: the source holds a T/C of zero for them, seemingly a mark for toxic or unscored doses. Some doses without a T/C left all or most animals alive at the check, yet need not have been tolerated: the source hardly ever lists a survival T/C far under the control, and the zero likely stands for such cases as well. Survivors were counted at the toxicity check, usually on the fifth day, unless a day is given; later deaths do not show. Schedules are NCI's codes, taken here to give the interval after Q, in days (D) or hours (H), and the number of doses after X. Some structures stand for samples that the source files as different forms (salt, stereo form or complex); doses refer to the form tested. Some entries were tested several times; the values are given in rising order. Where survival is the endpoint, this PubChem deposit counts one and a half times the control or more as active, and values a quarter to a half above the control carry no call in these data; other NCI protocols may use other cut-offs. Some T/C values carry the count of animals alive at the toxicity check (mostly the fifth day); where none is given, no animal had died by that day. Brackets with × say how often a value occurs here.

System: BDF1 mice, P388 leukemia ip, median survival T/C
Experiment: NCI In Vivo Anticancer Drug Screen. Data for tumor model P388 Leukemia (intraperitoneal) in B6D2F1 (BDF1) mice
Conditions: T/C endpoint: median survival time, higher T/C = longer survival
Summary of the method: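 Compound-treated tumour-bearing mice were compared with vehicle-treated controls. Survival was recorded, and the value is the treated-group measurement divided by the control-group measurement (T/C).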

`COc1cc2c[n+](C)c3c4cc5c(cc4ccc3c2cc1OC)OCO5` was tested, and the T/C (dose: 1.0 mg/kg/injection, schedule: Q01DX009 (ip), vehicle: saline, evaluated on day 30) was 86, 95 [4 of 6 alive], 97, 104, 113, 115 % of control, the T/C (dose: 1.0 mg/kg/injection, schedule: Q01DX009 (ip), vehicle: saline, evaluated on day 60) was 133 and 161 % of control and the T/C (dose: 1.25 mg/kg/injection, schedule: Q01DX009 (ip), vehicle: saline) was 126 % of control. For the same molecule, the T/C (dose: 1.25 mg/kg/injection, schedule: Q01DX009 (ip), vehicle: water) was 122, 124 (2×), 125, 128 % of control (2×), the T/C (dose: 2.0 mg/kg/injection, schedule: Q01DX009 (ip), vehicle: saline, evaluated on day 20) was 114 % of control and the T/C (dose: 2.0 mg/kg/injection, schedule: Q01DX009 (ip), vehicle: saline, evaluated on day 30) was 109, 131, 144, 145 % of control (3×). For the same molecule, the T/C (dose: 2.0 mg/kg/injection, schedule: Q01DX009 (ip), vehicle: saline, evaluated on day 60) was 142 and 190 % of control, the T/C (dose: 2.5 mg/kg/injection, schedule: Q01DX009 (ip), vehicle: saline) was 135 % of control and the T/C (dose: 2.5 mg/kg/injection, schedule: Q01DX009 (ip), vehicle: water) was 129 (2×), 138 (2×), 141 % of control (2×). For the same molecule, the T/C (dose: 4.0 mg/kg/injection, schedule: Q01DX009 (ip), vehicle: saline, evaluated on day 20) was 157 % of control, the T/C (dose: 4.0 mg/kg/injection, schedule: Q01DX009 (ip), vehicle: saline, evaluated on day 30) was 109, 118 [5 of 6 alive], 150, 150 [5 of 6 alive], 154, 175 % of control and the T/C (dose: 4.0 mg/kg/injection, schedule: Q01DX009 (ip), vehicle: saline, evaluated on day 60) was 209 % of control. For the same molecule, the T/C (dose: 5.0 mg/kg/injection, schedule: Q01DX009 (ip), vehicle: saline) was 144 % of control, the T/C (dose: 5.0 mg/kg/injection, schedule: Q01DX009 (ip), vehicle: water) was 144, 146, 148, 149, 151, 156 % of control [5 of 6 alive] and the T/C (dose: 8.0 mg/kg/injection, schedule: Q01DX009 (ip), vehicle: saline, evaluated on day 20) was 142 % of control. The T/C (dose: 8.0 mg/kg/injection, schedule: Q01DX009 (ip), vehicle: saline, evaluated on day 30) was 145, 150, 154, 157, 163, 168 % of control, the T/C (dose: 8.0 mg/kg/injection, schedule: Q01DX009 (ip), vehicle: saline, evaluated on day 60) was 209 % of control and the T/C (dose: 10.0 mg/kg/injection, schedule: Q01DX005 (ip), vehicle: Klucel (hydroxypropylcellulose) (HPC), evaluated on day 30) was 132, 133, 134, 137, 138, 142, 148, 151 (2×), 155, 158 (4×), 160, 161, 163, 166, 169 (2×), 172, 173, 174, 175, 176 (2×), 177, 178, 183, 185, 228 % of control. For the same molecule, the T/C (dose: 10.0 mg/kg/injection, schedule: Q01DX005 (ip), vehicle: Klucel (hydroxypropylcellulose) (HPC), evaluated on day 35) was 113 % of control, the T/C (dose: 10.0 mg/kg/injection, schedule: Q01DX009 (ip), vehicle: Klucel (hydroxypropylcellulose) (HPC), evaluated on day 30) was 106, 121, 128, 129 (2×), 132, 135, 142 (2×), 144 (2×), 146, 150, 151 (2×), 162 (2×), 163, 165, 166 (2×), 168 [4 of 6 alive], 174, 175, 176 (2×), 180, 184, 185, 186, 189, 205, 209, 211, 214 % of control and the T/C (dose: 10.0 mg/kg/injection, schedule: Q01DX009 (ip), vehicle: Klucel (hydroxypropylcellulose) (HPC), evaluated on day 35) was 180 % of control. For the same molecule, the T/C (dose: 10.0 mg/kg/injection, schedule: Q01DX009 (ip), vehicle: saline) was 145 % of control, the T/C (dose: 10.0 mg/kg/injection, schedule: Q01DX009 (ip), vehicle: water) was 146 (2×), 151, 152, 158, 166, 213 % of control and the T/C (dose: 16.0 mg/kg/injection, schedule: Q01DX009 (ip), vehicle: saline, evaluated on day 20) was 151 % of control. For the same molecule, the T/C (dose: 16.0 mg/kg/injection, schedule: Q01DX009 (ip), vehicle: saline, evaluated on day 30) was 100, 131, 168, 177, 195 % of control (2×), the T/C (dose: 20.0 mg/kg/injection, schedule: Q01DX005 (ip), vehicle: Klucel (hydroxypropylcellulose) (HPC), evaluated on day 30) was 126, 133, 138 [5 of 6 alive], 139, 144, 145, 153, 157 (2×), 158, 161, 163, 166, 173, 174, 175, 176 (2×), 178 (2×), 182 (2×), 183, 183 [5 of 6 alive], 184, 187, 188, 198, 213, 214, 262 % of control and the T/C (dose: 20.0 mg/kg/injection, schedule: Q01DX005 (ip), vehicle: Klucel (hydroxypropylcellulose) (HPC), evaluated on day 35) was 163 % of control. The T/C (dose: 20.0 mg/kg/injection, schedule: Q01DX009 (ip), vehicle: Klucel (hydroxypropylcellulose) (HPC), evaluated on day 30) was 102 [2 of 3 alive], 131, 133, 136, 141, 143, 147, 154, 160 (3×), 162 (2×), 163, 171, 172, 173, 179, 182 (2×), 185 (2×), 186 (2×), 187, 188, 192, 194, 197, 212, 213, 221, 223, 225, 229 % of control, the T/C (dose: 20.0 mg/kg/injection, schedule: Q01DX009 (ip), vehicle: Klucel (hydroxypropylcellulose) (HPC), evaluated on day 35) was 201 % of control and the T/C (dose: 20.0 mg/kg/injection, schedule: Q01DX009 (ip), vehicle: saline) was 154 [5 of 6 alive], 162, 172, 220 % of control. The T/C (dose: 20.0 mg/kg/injection, schedule: Q01DX009 (ip), vehicle: water) was 152, 156, 158, 161, 181, 186, 219 % of control [7 of 8 alive], the T/C (dose: 24.0 mg/kg/injection, schedule: Q01DX009 (ip), vehicle: water) was 140 % of control and the T/C (dose: 30.0 mg/kg/injection, schedule: Q04DX002 (ip), vehicle: Klucel (hydroxypropylcellulose) (HPC), evaluated on day 30) was 106 (2×), 111, 130, 139, 140, 147, 151, 153 (2×), 156, 159, 162 (2×), 166, 169, 171 (2×), 172, 175 (2×), 176, 177 (2×), 180, 181, 198, 207 % of control. For the same molecule, the T/C (dose: 30.0 mg/kg/injection, schedule: Q04DX002 (ip), vehicle: Klucel (hydroxypropylcellulose) (HPC), evaluated on day 35) was 146 % of control, the survivor count (dose: 30.0 mg/kg/injection, schedule: Q04DX002 (ip), vehicle: Klucel (hydroxypropylcellulose) (HPC)) was 3 of 3 and the T/C (dose: 30.0 mg/kg/injection, schedule: Q04DX003 (ip), vehicle: Klucel (hydroxypropylcellulose) (HPC), evaluated on day 30) was 86, 100, 134, 135, 137, 146, 150, 152 (2×), 156, 157 (2×), 158, 162, 163 (2×), 165, 169, 171, 172, 175, 181, 183 (2×), 185 (2×), 193, 198, 204, 205, 250 % of control. The T/C (dose: 30.0 mg/kg/injection, schedule: Q04DX003 (ip), vehicle: Klucel (hydroxypropylcellulose) (HPC), evaluated on day 35) was 188 % of control, the T/C (dose: 32.0 mg/kg/injection, schedule: Q01DX009 (ip), vehicle: saline, evaluated on day 20) was 131 % of control and the T/C (dose: 32.0 mg/kg/injection, schedule: Q01DX009 (ip), vehicle: saline, evaluated on day 30) was 113, 145, 168, 181, 186, 260 % of control. The T/C (dose: 40.0 mg/kg/injection, schedule: Q01DX005 (ip), vehicle: Klucel (hydroxypropylcellulose) (HPC), evaluated on day 30) was 126, 128, 139 (2×), 142, 143, 151, 156, 158, 163, 166 [4 of 6 alive], 169, 175, 179, 185, 191, 192, 193, 199, 206, 210, 215, 219, 220, 228, 236, 243, 249, 270 % of control, the T/C (dose: 40.0 mg/kg/injection, schedule: Q01DX005 (ip), vehicle: Klucel (hydroxypropylcellulose) (HPC), evaluated on day 35) was 201 % of control and the survivor count (dose: 40.0 mg/kg/injection, schedule: Q01DX005 (ip), vehicle: Klucel (hydroxypropylcellulose) (HPC)) was 3 of 3 and 6 of 6. The T/C (dose: 40.0 mg/kg/injection, schedule: Q01DX009 (ip), vehicle: Klucel (hydroxypropylcellulose) (HPC), evaluated on day 30) was 97, 105, 113, 115 (2×), 116, 120, 121, 123, 125, 127, 132, 134, 136 (2×), 141, 142, 156, 157, 158, 161, 165, 171 (3×), 173, 178, 179, 181, 182, 195, 204, 217, 278 % of control.
